Experimental data: the supplement of paper PMC10849652
This is one part of the list. Residues, ends and D or L forms follow the SMILES beside them. *: point of attachment. Cbz = O=C(OCc1ccccc1)*

Chains of the proteins cited; added tags and fusions are not shown. Lines headed by an entry give the natural chain unless they say otherwise; changes in a name come on top.
UniProt Q9H900: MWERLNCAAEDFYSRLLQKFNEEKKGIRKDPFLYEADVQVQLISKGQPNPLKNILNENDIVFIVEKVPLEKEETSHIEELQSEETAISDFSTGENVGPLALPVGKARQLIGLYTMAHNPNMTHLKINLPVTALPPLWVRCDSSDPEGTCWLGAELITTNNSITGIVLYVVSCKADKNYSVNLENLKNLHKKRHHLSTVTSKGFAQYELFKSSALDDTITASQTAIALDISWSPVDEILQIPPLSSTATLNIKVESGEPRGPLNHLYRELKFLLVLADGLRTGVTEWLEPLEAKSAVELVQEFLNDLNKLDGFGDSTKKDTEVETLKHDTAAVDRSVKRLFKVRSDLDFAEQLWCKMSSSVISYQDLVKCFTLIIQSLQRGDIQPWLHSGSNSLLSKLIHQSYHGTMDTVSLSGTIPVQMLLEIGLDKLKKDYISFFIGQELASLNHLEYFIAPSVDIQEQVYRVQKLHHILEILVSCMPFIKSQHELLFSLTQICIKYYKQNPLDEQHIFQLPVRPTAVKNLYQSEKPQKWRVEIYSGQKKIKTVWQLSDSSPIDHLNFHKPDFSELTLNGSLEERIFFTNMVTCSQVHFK
UniProt O95229: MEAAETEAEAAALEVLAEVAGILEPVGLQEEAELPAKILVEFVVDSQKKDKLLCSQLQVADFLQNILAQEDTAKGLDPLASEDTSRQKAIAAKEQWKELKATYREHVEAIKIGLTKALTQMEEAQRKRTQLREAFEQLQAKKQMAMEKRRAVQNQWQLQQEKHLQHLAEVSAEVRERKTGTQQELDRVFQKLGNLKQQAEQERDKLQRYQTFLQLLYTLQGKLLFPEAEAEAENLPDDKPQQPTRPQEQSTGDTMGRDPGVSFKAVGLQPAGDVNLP
UniProt Q9C0D3: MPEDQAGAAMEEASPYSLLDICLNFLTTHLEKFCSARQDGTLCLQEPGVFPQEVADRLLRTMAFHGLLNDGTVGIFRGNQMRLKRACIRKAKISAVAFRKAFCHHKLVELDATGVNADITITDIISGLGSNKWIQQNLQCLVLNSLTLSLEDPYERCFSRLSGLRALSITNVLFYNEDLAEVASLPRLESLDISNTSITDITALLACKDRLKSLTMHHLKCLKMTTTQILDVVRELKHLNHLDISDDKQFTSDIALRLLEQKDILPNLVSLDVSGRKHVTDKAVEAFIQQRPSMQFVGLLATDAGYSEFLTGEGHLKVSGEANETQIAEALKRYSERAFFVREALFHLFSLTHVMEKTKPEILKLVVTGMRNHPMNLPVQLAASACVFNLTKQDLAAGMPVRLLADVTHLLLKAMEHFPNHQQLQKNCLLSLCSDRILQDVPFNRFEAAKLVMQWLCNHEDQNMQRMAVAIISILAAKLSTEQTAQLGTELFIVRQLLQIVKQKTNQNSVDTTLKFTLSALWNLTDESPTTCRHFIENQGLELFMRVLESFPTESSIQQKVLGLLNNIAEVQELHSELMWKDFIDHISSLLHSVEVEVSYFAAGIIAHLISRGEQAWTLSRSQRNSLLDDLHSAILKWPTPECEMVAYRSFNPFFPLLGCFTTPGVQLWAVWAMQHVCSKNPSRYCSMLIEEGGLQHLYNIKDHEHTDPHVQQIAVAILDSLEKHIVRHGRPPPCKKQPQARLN
UniProt Q15942: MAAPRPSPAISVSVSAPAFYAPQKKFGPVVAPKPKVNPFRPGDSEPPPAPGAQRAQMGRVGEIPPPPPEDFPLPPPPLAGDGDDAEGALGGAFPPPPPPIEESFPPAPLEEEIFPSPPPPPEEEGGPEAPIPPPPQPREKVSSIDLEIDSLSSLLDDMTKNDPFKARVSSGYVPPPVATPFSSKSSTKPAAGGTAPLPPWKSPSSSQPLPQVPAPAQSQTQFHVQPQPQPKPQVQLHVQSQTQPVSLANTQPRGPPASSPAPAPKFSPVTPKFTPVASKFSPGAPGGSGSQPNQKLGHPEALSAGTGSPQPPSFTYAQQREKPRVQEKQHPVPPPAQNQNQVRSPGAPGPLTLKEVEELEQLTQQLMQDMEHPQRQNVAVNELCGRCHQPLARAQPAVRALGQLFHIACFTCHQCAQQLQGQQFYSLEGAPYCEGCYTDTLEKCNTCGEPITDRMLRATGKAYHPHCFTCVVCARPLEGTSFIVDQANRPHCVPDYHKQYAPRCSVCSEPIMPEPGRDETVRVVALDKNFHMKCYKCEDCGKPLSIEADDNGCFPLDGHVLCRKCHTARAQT
UniProt O43149: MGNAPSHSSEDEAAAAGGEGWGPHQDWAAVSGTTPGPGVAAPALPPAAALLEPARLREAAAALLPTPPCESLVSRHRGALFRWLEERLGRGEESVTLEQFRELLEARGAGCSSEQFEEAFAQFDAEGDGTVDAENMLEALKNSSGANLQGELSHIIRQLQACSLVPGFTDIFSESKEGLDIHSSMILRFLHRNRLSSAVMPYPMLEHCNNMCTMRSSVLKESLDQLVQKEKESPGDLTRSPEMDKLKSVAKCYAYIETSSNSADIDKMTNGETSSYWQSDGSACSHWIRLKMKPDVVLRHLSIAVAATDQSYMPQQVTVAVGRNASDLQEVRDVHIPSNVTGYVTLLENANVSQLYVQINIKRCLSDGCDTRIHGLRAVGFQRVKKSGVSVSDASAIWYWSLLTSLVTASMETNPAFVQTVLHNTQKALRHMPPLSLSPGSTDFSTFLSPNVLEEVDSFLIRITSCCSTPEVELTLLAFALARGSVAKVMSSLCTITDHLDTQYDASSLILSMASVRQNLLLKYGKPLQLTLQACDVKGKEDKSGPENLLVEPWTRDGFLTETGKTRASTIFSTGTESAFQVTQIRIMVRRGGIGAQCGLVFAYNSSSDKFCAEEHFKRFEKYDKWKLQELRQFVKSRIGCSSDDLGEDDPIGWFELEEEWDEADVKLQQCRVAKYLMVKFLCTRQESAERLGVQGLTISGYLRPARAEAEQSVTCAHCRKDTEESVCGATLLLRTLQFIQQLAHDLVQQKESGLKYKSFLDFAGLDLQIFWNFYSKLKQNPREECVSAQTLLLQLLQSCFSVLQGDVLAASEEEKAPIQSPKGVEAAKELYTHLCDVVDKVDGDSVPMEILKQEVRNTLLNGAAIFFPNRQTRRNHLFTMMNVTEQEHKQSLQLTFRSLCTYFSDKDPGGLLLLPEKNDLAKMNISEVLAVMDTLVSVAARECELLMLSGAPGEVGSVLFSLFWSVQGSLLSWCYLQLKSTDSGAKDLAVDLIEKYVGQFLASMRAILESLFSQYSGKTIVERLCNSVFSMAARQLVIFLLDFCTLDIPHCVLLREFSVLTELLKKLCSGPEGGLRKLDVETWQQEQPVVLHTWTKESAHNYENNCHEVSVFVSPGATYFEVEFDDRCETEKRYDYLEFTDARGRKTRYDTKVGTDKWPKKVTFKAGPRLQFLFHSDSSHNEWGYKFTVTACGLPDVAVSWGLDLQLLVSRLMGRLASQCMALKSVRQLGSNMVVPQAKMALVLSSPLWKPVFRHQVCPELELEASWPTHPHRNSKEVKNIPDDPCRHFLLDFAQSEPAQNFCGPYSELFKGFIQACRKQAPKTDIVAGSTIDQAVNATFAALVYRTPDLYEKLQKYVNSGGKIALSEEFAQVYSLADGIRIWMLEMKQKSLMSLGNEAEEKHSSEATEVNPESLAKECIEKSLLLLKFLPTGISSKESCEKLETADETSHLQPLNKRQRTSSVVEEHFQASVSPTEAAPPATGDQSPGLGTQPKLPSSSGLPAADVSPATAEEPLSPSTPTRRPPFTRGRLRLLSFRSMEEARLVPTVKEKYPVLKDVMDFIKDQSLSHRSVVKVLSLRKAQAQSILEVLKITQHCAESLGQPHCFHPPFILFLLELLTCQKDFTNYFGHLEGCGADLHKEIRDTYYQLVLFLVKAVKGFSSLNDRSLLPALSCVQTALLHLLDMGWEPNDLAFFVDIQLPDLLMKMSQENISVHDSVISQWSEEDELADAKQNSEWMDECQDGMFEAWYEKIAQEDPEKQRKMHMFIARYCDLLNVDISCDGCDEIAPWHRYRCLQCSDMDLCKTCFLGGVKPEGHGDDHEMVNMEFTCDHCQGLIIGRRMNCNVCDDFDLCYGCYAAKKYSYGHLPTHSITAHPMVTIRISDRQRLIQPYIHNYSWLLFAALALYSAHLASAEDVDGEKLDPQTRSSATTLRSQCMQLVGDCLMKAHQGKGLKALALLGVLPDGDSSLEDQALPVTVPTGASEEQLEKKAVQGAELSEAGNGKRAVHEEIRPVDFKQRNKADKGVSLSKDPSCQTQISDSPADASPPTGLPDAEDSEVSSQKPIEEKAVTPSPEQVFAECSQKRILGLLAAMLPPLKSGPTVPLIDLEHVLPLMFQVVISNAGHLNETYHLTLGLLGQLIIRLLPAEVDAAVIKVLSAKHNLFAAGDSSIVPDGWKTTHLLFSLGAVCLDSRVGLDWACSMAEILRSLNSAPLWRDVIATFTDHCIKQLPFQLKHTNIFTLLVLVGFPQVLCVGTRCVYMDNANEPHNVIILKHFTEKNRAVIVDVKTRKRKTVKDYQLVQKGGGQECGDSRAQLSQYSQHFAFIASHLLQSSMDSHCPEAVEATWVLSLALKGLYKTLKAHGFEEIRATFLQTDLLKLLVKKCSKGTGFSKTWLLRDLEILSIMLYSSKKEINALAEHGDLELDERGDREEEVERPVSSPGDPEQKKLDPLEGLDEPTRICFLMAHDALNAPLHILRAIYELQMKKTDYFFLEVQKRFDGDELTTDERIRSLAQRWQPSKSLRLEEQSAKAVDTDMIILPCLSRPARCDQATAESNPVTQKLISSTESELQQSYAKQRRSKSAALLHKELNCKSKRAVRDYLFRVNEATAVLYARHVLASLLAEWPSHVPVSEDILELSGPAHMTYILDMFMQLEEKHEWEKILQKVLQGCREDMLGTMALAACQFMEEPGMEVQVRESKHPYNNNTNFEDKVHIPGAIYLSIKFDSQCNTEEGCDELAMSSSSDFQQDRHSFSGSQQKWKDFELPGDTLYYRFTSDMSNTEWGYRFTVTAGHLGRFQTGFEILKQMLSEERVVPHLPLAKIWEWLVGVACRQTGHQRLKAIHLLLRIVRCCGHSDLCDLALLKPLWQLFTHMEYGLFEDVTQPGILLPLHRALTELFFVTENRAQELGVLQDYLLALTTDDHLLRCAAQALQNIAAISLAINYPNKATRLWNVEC

Key:
Experiment in all cases: log2 fold change, soluble protein after heating vs DMSO (PISA); higher = thermal stabilisation; K562 cells, 10 uM, 30 min; active = over 0.2 and 3.5 SD of the protein, either way, in both replicates (recomputed)
ZWILCH = ZWILCH (UniProt Q9H900)
Method in brief: (§1)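 K562 cells at 2×10^6 cells/mL were treated for 30 min with 10 μM compound, and aliquots were heated for 3 min over 48°C-58°C before pooling. Extraction used PBS with 0.5% NP-40 at 4°C, and soluble protein was the supernatant after 21,000xg for 90 min, measured by TMTpro 16plex LC-MS/MS with channel sums equalised. Thermal stability values, relative to control samples and from duplicates, are log2 fold changes.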

ZWINT = ZWINT (UniProt O95229)
Method in brief: as §1

ZYG11B = ZYG11B (UniProt Q9C0D3)
Method in brief: as §1

ZYX = ZYX (UniProt Q15942)
Method in brief: as §1

ZZEF1 = ZZEF1 (UniProt O43149)
Method in brief: as §1

Measured: log2 fold change

COc1cc(Nc2ncc3c(n2)-c2ccc(Cl)cc2C(c2c(F)cccc2OC)=NC3)ccc1C(=O)O [alisertib]
inactive: ZWILCH -0.024 | ZWINT -0.024 | ZYG11B -0.155 | ZYX -0.012 | ZZEF1 = 0.133

CCn1cc(-c2ccnc3[nH]c(-c4cccc(CN(C)C)c4)cc23)c(-c2ccc(NC(=O)N(C)C)cc2)n1
inactive: ZWILCH 0.01 | ZWINT 0.007 | ZYG11B -0.085 | ZYX -0.014 | ZZEF1 = -0.067

CN1CCN(CCOc2cc(OC3CCOCC3)c3c(Nc4c(Cl)ccc5c4OCO5)ncnc3c2)CC1 [saracatinib]
inactive: ZWILCH -0.012 | ZWINT 0.024 | ZYG11B -0.051 | ZYX 0.027 | ZZEF1 = -0.067

COc1ccc(Cn2ccc3ccc(C(=O)NO)cc32)cc1
inactive: ZWILCH 0.019 | ZWINT -0.038 | ZYG11B 0.052 | ZYX 0.011 | ZZEF1 = -0.01

CCCS(=O)(=O)Nc1ccc(F)c(C(=O)c2c[nH]c3ncc(-c4ccc(Cl)cc4)cc23)c1F [vemurafenib]
inactive: ZWILCH 0.04 | ZWINT 0.014 | ZYG11B 0.048 | ZYX 0 | ZZEF1 = -0.045

O=C1NC(=O)/C(=C\c2ccc3nccnc3c2)S1
inactive: ZWILCH 0.056 | ZWINT 0.07 | ZYG11B -0.084 | ZYX 0.009 | ZZEF1 = 0.071

NC(=O)Nc1cc(-c2cccc(F)c2)sc1C(=O)N[C@H]1CCCNC1
inactive: ZWILCH 0 | ZWINT 0.034 | ZYG11B -0.033 | ZYX 0.006 | ZZEF1 = 0.001

Cc1nc(Nc2ncc(C(=O)Nc3c(C)cccc3Cl)s2)cc(N2CCN(CCO)CC2)n1 [dasatinib]
inactive: ZWILCH -0.05 | ZWINT 0.081 | ZYG11B -0.017 | ZYX 0.027 | ZZEF1 = -0.013

C[C@@H]1COCCN1c1cc(C2(S(C)(=O)=O)CC2)nc(-c2cccc3[nH]ccc23)n1
inactive: ZWILCH -0.04 | ZWINT -0.073 | ZYG11B -0.008 | ZYX -0.021 | ZZEF1 = 0.022

CC[C@H](C)[C@H](NC(=O)[C@H]([C@@H](C)CC)N(C)C(C)=O)C(=O)N[C@H](C(=O)N[C@@H](CC(C)C)C(=O)[C@@]1(C)CO1)[C@@H](C)O [epoxomicin]
inactive: ZWILCH 0.013 | ZWINT 0.095 | ZYG11B 0.123 | ZYX 0.038 | ZZEF1 = 0.001

COc1cc2ncnc(Nc3ccc(F)c(Cl)c3)c2cc1OCCCN1CCOCC1 [gefitinib]
inactive: ZWILCH 0.125 | ZWINT -0.027 | ZYG11B 0.042 | ZYX -0.005 | ZZEF1 = 0.026

Cc1nc(Nc2n[nH]c3c2CN(C(=O)N[C@H](CN(C)C)c2ccccc2)C3(C)C)c2sccc2n1
inactive: ZWILCH -0.042 | ZWINT 0.019 | ZYG11B 0.026 | ZYX -0.006 | ZZEF1 = 0.028

Cc1cccc(CC(=O)N2CCc3c2ccc(-c2cn(C)c4ncnc(N)c24)c3F)n1
inactive: ZWILCH 0.027 | ZWINT -0.003 | ZYG11B -0.031 | ZYX 0 | ZZEF1 = 0.015

NCC(=O)Nc1ccc(-n2nc(C(F)(F)F)cc2-c2ccc3c(ccc4ccccc43)c2)cc1
inactive: ZWILCH -0.068 | ZWINT -0.009 | ZYG11B -0.045 | ZYX 0.006 | ZZEF1 = -0.026

CCN(CCCOc1ccc2c(Nc3cc(CC(=O)Nc4cccc(F)c4)[nH]n3)ncnc2c1)CCOP(=O)(O)O [barasertib]
inactive: ZWILCH 0.064 | ZWINT -0.008 | ZYG11B 0.044 | ZYX -0.006 | ZZEF1 = 0.045

Cc1cccc(-c2[nH]c(C(C)(C)C)nc2-c2ccc3nccnc3c2)n1
inactive: ZWILCH 0 | ZWINT -0.02 | ZYG11B -0.039 | ZYX -0.001 | ZZEF1 = -0.037

O=C(CCCCCCC(=O)Nc1ccccc1)NO [vorinostat]
inactive: ZWILCH 0.056 | ZWINT -0.009 | ZYG11B 0.053 | ZYX -0.017 | ZZEF1 = 0.1

CON(C)C(=O)N1N=C(c2cc(F)ccc2F)S[C@@]1(CCCN)c1ccccc1 [filanesib]
inactive: ZWILCH 0.016 | ZWINT 0.02 | ZYG11B 0.014 | ZYX -0.033 | ZZEF1 = -0.008

FC(F)(F)c1ccc(/C=C/c2nc(COc3ccc(CCCCn4ccnn4)cc3)co2)cc1 [mubritinib]
inactive: ZWILCH 0.037 | ZWINT -0.017 | ZYG11B 0.01 | ZYX 0.021 | ZZEF1 = 0.022

CNCc1ccc(-c2[nH]c3cc(F)cc4c3c2CCNC4=O)cc1 [rucaparib]
inactive: ZWILCH -0.051 | ZWINT 0.033 | ZYG11B 0.061 | ZYX 0.054 | ZZEF1 = -0.013

O=C1NC(=O)C(c2cnc3ccccn23)=C1c1cn2c3c(cc(F)cc13)CN(C(=O)N1CCCCC1)CC2
inactive: ZWILCH 0.051 | ZWINT 0.002 | ZYG11B 0.019 | ZYX -0.021 | ZZEF1 = -0.001

CNC(=O)c1ccc(Nc2ncc(C(F)(F)F)c(NCc3nccnc3N(C)S(C)(=O)=O)n2)cc1 [defactinib]
inactive: ZWILCH -0.007 | ZWINT -0.034 | ZYG11B -0.058 | ZYX -0.006 | ZZEF1 = -0.039

NC1(c2ccc(-c3nc4ccn5c(=O)[nH]nc5c4cc3-c3ccccc3)cc2)CCC1
inactive: ZWILCH -0.097 | ZWINT -0.006 | ZYG11B -0.087 | ZYX 0.007 | ZZEF1 = -0.16

Cc1ccc(NC(=O)c2cccc(N(C)C)c2)cc1NC(=O)c1ccc(O)cc1
inactive: ZWILCH 0.238 | ZWINT 0.006 | ZYG11B -0.018 | ZYX -0.034 | ZZEF1 = -0.04

CC[C@@H]1C(=O)N(C)c2cnc(Nc3ccc(C(=O)NC4CCN(C)CC4)cc3OC)nc2N1C1CCCC1
inactive: ZWILCH -0.078 | ZWINT 0.017 | ZYG11B -0.031 | ZYX -0.015 | ZZEF1 = -0.042

O=C(Nc1nc2ccccc2n1CCN1CCOCC1)c1cccc([N+](=O)[O-])c1 [IRAK-1-4 Inhibitor I]
inactive: ZWILCH -0.042 | ZWINT -0.043 | ZYG11B 0.044 | ZYX 0.019 | ZZEF1 = 0.069

Cc1ccc(NC(=O)c2cccc(C(C)(C)C#N)c2)cc1Nc1ccc2ncn(C)c(=O)c2c1
inactive: ZWILCH 0 | ZWINT 0.034 | ZYG11B -0.006 | ZYX -0.008 | ZZEF1 = 0.014

Some of these compounds in order of SMILES length, smallest number first.
O=C(Nc1nc2ccccc2n1CCN1CCOCC1)c1cccc([N+](=O)[O-])c1 [IRAK-1-4 Inhibitor I]
inactive: ZWILCH -0.042 | ZWINT -0.043 | ZYG11B 0.044 | ZYX 0.019 | ZZEF1 = 0.069

Cc1nc(Nc2ncc(C(=O)Nc3c(C)cccc3Cl)s2)cc(N2CCN(CCO)CC2)n1 [dasatinib]
inactive: ZWILCH -0.05 | ZWINT 0.081 | ZYG11B -0.017 | ZYX 0.027 | ZZEF1 = -0.013

O=C1NC(=O)C(c2cnc3ccccn23)=C1c1cn2c3c(cc(F)cc13)CN(C(=O)N1CCCCC1)CC2
inactive: ZWILCH 0.051 | ZWINT 0.002 | ZYG11B 0.019 | ZYX -0.021 | ZZEF1 = -0.001

Further entries.

CS(=O)(=O)c1ccc(-c2cnc(N)c(C(=O)Nc3ccccc3)n2)cc1
inactive: ZWILCH -0.003 | ZWINT -0.015 | ZYG11B 0.01 | ZYX 0.008 | ZZEF1 = 0.027

Cn1cc(-c2ccc3nnc(C(F)(F)c4ccc5ncccc5c4)n3n2)cn1
inactive: ZWILCH -0.069 | ZWINT -0.062 | ZYG11B 0 | ZYX 0.044 | ZZEF1 = 0.049

COC(=O)N[C@@H](C)CNc1nccc(-c2cn(C(C)C)nc2-c2cc(Cl)cc(NS(C)(=O)=O)c2F)n1 [encorafenib]
inactive: ZWILCH 0.076 | ZWINT 0.065 | ZYG11B -0.055 | ZYX -0.049 | ZZEF1 = 0.097

O=C(O)c1ccc2c(c1)nc(Nc1cccc(Cl)c1)c1ccncc12 [silmitasertib]
inactive: ZWILCH 0.059 | ZWINT 0.069 | ZYG11B 0 | ZYX -0.023 | ZZEF1 = 0.003

O=C(CCCCCCNC(=O)c1cnc(N(c2ccccc2)c2ccccc2Cl)nc1)NO [citarinostat]
inactive: ZWILCH 0.104 | ZWINT 0.02 | ZYG11B -0.043 | ZYX 0.008 | ZZEF1 = -0.002

Cc1ccc(C(=O)N(CCCN)[C@@H](c2nc3cc(Cl)ccc3c(=O)n2Cc2ccccc2)C(C)C)cc1 [ispinesib]
inactive: ZWILCH -0.045 | ZWINT -0.016 | ZYG11B 0.041 | ZYX 0.021 | ZZEF1 = -0.003

CC(C)C[C@@H](C=O)NC(=O)[C@H](CC(C)C)NC(=O)[C@H](CC(C)C)NC(=O)OCc1ccccc1 (Cbz-Leu-Leu-Leu-aldehyde)
inactive: ZWILCH 0.079 | ZWINT 0.085 | ZYG11B 0.042 | ZYX 0.022 | ZZEF1 = 0.012

Cc1ccc(-n2nc(C(C)(C)C)cc2NC(=O)Nc2ccc(OCCN3CCOCC3)c3ccccc23)cc1 [doramapimod]
inactive: ZWILCH -0.002 | ZWINT 0.006 | ZYG11B 0.036 | ZYX -0.049 | ZZEF1 = 0.047

CN(C)CC(=O)Nc1ccc2[nH]c(=O)c3ccccc3c2c1
inactive: ZWILCH 0.051 | ZWINT -0.019 | ZYG11B -0.003 | ZYX -0.004 | ZZEF1 = -0.037

CCCCN(Cc1ccc(C(=O)NO)cc1)C(=O)Nc1ccccc1 [Nexturastat A]
inactive: ZWILCH -0.008 | ZWINT 0.036 | ZYG11B -0.011 | ZYX -0.021 | ZZEF1 = 0.002
